The text below walks through data of paper PMC2366074.

Chains of the proteins cited; added tags and fusions are not shown.
UniProt P51532: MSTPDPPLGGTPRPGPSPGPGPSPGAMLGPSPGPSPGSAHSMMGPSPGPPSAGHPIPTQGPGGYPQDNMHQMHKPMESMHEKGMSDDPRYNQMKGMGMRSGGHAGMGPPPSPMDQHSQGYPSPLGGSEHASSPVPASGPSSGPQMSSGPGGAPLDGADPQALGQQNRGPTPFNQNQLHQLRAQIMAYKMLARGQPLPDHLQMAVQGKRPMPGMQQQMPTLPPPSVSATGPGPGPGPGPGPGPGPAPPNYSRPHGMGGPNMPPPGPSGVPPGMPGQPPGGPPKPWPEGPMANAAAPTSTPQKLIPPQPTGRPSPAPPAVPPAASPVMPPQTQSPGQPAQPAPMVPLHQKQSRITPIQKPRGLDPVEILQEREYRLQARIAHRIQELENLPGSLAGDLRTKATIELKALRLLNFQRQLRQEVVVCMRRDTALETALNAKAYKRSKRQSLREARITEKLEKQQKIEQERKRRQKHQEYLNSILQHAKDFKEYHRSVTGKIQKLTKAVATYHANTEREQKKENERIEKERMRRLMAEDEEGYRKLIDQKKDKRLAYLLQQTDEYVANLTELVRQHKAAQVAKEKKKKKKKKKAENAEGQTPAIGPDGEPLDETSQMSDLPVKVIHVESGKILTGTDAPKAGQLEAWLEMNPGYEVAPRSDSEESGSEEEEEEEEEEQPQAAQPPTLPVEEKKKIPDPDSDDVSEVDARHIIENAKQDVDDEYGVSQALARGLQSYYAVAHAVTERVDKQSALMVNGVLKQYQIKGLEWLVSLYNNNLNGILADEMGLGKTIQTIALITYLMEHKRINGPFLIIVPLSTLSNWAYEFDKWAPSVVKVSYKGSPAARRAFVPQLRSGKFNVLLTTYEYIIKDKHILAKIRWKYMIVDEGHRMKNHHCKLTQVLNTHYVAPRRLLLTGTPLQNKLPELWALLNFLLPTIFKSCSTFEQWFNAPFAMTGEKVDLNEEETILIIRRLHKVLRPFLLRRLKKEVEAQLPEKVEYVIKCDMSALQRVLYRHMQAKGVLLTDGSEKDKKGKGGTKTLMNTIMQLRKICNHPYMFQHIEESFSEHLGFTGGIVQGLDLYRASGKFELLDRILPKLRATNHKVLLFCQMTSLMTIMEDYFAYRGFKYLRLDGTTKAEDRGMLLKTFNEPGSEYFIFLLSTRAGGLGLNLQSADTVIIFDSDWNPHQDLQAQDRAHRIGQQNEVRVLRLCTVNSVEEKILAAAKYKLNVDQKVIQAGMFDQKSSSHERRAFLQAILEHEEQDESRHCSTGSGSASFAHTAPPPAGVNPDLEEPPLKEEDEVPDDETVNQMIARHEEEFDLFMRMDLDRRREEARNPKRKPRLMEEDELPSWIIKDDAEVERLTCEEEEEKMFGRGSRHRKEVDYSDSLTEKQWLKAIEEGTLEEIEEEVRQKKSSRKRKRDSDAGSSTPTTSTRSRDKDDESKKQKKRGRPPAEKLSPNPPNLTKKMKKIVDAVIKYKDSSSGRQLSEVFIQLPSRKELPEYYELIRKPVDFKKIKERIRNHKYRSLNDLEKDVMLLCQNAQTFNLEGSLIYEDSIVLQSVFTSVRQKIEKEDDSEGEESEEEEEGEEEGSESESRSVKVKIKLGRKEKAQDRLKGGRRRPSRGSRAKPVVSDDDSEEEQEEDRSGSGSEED

The experiment addresses T1, Recombinant green fluorescent protein (GFP)-ADNP (UniProt Q9H2P0).
T1 sequence: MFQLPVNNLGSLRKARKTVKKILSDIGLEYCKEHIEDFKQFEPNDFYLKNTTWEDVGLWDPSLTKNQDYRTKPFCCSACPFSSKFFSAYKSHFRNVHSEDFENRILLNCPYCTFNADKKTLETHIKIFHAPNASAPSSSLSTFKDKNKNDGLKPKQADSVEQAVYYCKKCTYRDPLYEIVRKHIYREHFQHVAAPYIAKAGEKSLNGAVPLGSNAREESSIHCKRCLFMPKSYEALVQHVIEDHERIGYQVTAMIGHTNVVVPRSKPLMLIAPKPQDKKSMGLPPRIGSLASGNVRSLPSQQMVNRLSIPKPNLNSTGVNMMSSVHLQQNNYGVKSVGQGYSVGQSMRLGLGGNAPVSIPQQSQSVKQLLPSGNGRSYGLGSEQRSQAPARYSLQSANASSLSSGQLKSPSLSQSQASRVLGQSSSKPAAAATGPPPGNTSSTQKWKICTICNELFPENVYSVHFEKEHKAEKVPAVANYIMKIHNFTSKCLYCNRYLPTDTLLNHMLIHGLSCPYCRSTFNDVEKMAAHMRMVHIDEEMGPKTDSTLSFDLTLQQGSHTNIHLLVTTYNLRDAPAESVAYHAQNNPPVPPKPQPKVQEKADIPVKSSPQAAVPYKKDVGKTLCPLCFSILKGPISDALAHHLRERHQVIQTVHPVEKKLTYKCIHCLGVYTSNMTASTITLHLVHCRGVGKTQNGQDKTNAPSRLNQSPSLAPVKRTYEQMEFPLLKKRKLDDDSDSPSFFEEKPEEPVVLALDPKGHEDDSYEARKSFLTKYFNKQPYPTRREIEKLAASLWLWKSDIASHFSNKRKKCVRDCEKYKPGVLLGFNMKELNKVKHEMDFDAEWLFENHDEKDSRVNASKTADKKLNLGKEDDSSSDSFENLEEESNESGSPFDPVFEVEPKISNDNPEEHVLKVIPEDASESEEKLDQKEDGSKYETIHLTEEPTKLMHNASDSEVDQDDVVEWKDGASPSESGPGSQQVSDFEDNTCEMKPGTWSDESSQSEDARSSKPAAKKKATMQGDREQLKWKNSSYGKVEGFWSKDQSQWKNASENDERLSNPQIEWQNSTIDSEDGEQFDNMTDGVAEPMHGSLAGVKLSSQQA
As to the kind of experiment: co-IP; HEK293 cells with GFP-ADNP; verification utilizing BRG1 antibodies.

These are yes or no findings as the source states them, for the method shown. In cells and extracts the contact can be indirect. Some results given as binding are weak or reduced against the parent protein; the word gives no strength. Where a sequence is shown, tags or fusion partners need not be part of it.

Consider BRG1 (from UniProt P51532 1-1647), for which the binding result is “binds”.
